Experimental data from PubChem BioAssay AID540276 (National Center for Advancing Translational Sciences (NCATS), 2011).
Where “and” joins values, the source holds several entries; their conditions need not be identical. Identical values can stand only once. Among all 300,000 compounds or so, about 5,400 (1.8%) were called active. The inconclusive results got no clear call from the source; some entries with a clear call stand among them for comparison. The call rests on the fitted dose curve; tested in HEK293 cells. Potencies beside an inconclusive call are fits to weak or partial responses and may not hold up.

Experiment: qHTS for inhibitors of binding or entry into cells for Marburg Virus
Settings: Marburg virus pseudotyped entry inhibition, cell reporter; activity change, negative = inhibition: at 37.8 µM (top of the series) unless noted
On the % scale 0 is the no-effect control and ±100 the full control effect; potency means the concentration at half of the fitted maximal effect.

| SMILES | activity change, negative = inhibition | Potency |
| --- | --- | --- |
| CC1CCN(S(=O)(=O)c2ccc3c(c2)N(C)C(=O)CC(=O)N3C)CC1 | inactive: 0.811% [at 46.1 µM] | – |
| O=C1CC(NC2CCN(C(=O)c3cccc(F)c3)CC2)C(=O)N1 (configuration not stated) | inactive: -3.04% [at 46.1 µM] | – |
| C/C(=N\NC(=S)Nc1ccc(F)cc1)c1ccc2c(c1)OCCO2 | – | active: 1 µM |
| CC(OC(=O)c1ccc(Cl)c(S(=O)(=O)N2CCc3ccccc32)c1)C(=O)Nc1ncc(Cl)cc1Cl (configuration not stated) | – | inconclusive: 35.5 µM [activator, single point] |
| CC1=C(C(=O)Nc2ccccc2)C(c2cccnc2)n2nc(-c3cccnc3)nc2N1 (configuration not stated) | inactive: 16.3% | – |
| COc1ccc(CCNCc2ccc(OCc3ccccc3)cc2)cc1 | – | inconclusive: 17.8 µM [inhibitor, single point] |
| Cc1ccc(-n2c(SCC(=O)N3CCCCC3)nc(O)cc2=O)cc1 | inactive: 5.96% | – |
| O=C(Nc1ccccc1)C(=O)c1c[nH]c2ccccc12 | – | inconclusive: 0.562 µM [activator, partial curve, poor fit] |
| COc1ccccc1Nc1c([N+](=O)[O-])cncc1[N+](=O)[O-] | – | inconclusive: 15.8 µM [inhibitor, single point] |
| CCCNC(=O)CN1C(=O)COc2ccc(S(=O)(=O)N3CCCCCC3)cc21 | – | inactive |
| COc1ccc2cc(C(N)=O)c(=Nc3ccccc3)oc2c1 | inactive: 26.5% [at 46.1 µM] | – |
| N/C(=N\OC(=O)c1cccnc1)c1ccc(Cl)cc1Cl | – | inconclusive: 10 µM [activator, partial curve, poor fit] |
| CCOc1ccc(NC(=O)CN(C)C(=O)CN2C(=O)c3ccc([N+](=O)[O-])cc3C2=O)cc1OCC | inactive: -20.8% | – |
| CCOc1ccc(NC(=O)c2ccc3c(=O)n4c(nc3c2)CCCCC4)cc1 | – | inactive |
| COc1ccc(N2CC(C(=O)Nc3ccccc3N3CCCC3)CC2=O)c(OC)c1 (configuration not stated) | – | inconclusive: 6.31 µM [inhibitor, single point] |
| CC(C)c1ccc(CNc2ccc([N+](=O)[O-])cn2)cc1 | – | inconclusive: 31.6 µM [activator, single point] |
| CCC(C)NC(=O)c1cc2cc3ccc(OC)cc3nc2s1 (configuration not stated) | – | inconclusive: 8.2 µM [inhibitor, partial curve, poor fit] |
| CCOc1ccc(OCC(=O)NCc2n[nH]c(=O)c3ccccc23)cc1 | – | inconclusive: 3.55 µM [inhibitor, single point] |
| Cn1cc([N+](=O)[O-])c(C(=O)n2cccn2)n1 | – | inconclusive: 2.82 µM [inhibitor, single point] |
| CCC(C(=O)NCCc1ccc(OC)c(OC)c1OC)n1nc(C)c2sc3ccccc3c2c1=O (configuration not stated) | – | inconclusive: 12.6 µM [activator, partial curve, poor fit] |
| Cc1nc(C)c(-c2ccccc2)c(=O)[nH]1 | – | inconclusive: 12.6 µM [activator, single point] |
| COCC(=O)N1CCC(n2nccc2NC(=O)c2ccccc2OC)CC1 | inactive: 8.04% | – |
| Cc1ccc(-n2c(=O)c3c(cnn3C)n(CC(=O)Nc3cccc(Cl)c3)c2=O)cc1 | inactive: 2.84% [at 46.1 µM] | – |

| SMILES | activity change, negative = inhibition | Potency |
| --- | --- | --- |
| Cc1cc(C)c(C)c(S(=O)(=O)Nc2ccccc2C(=O)NCCCn2ccnc2)c1C | – | inconclusive: 5.01 µM [inhibitor, full curve, poor fit] |
| CCOC(=O)C1CCN(C(=O)Cc2c(F)cccc2Cl)CC1 | inactive: 2.05% | – |
| COc1cc2c(cc1OC)CN(C(=O)c1ccc(OC)c(S(=O)(=O)N3CCOCC3)c1)CC2 | – | inactive |
| COc1cc2nc(N(CCCN(C)C)C(=O)c3ccc(S(=O)(=O)N(C)C4CCCCC4)cc3)sc2cc1OC | – | inconclusive: 35.5 µM [inhibitor, single point] |
| CCOC(=O)c1[nH]c2ccccc2c1NC(=O)c1ccc(C)c(C)c1 | – | inconclusive: 15.8 µM [activator, single point] |
| Cc1ccc(S(=O)(=O)N(C)CC(=O)O/N=C(\N)c2ccc([N+](=O)[O-])cc2)cc1 | – | inconclusive: 20.6 µM [activator, partial curve, poor fit] |
| CCCCOc1ccc(C(=O)O[C@@H]2C[C@@H](C)N(C)C[C@H]2C)cc1 | – | inconclusive: 15.8 µM [inhibitor, single point] |
| Cc1ccsc1C1NC(=O)c2c(sc3c2CCCC3)N1 (configuration not stated) | – | inconclusive: 6.31 µM [activator, single point] |
| O=C(COc1nsnc1N1CCOCC1)N/N=C/c1ccccc1O | – | inconclusive: 5.8 µM [inhibitor, partial curve, poor fit] |
| Cc1cc(C)cc(N2C(=O)CC(Sc3ccccc3C(=O)O)C2=O)c1 (configuration not stated) | – | inconclusive: 35.5 µM [inhibitor, single point] |
| CCOC(=O)C1CCCN(C(=O)C2CCN(S(=O)(=O)c3cccs3)CC2)C1 (configuration not stated) | – | inconclusive: 4.61 µM [inhibitor, partial curve, poor fit] |
| Cc1ccc2nc3ccc(N4CCCC4)nn3c(=O)c2c1 | inactive: -13.1% | – |
| Cc1ccc(-n2c(C)c([N+](=O)[O-])c3ccc(O)c(CN(C)C)c32)cc1 | – | inconclusive: 29.1 µM [inhibitor, single point] |
| O=C(Nc1nc(-c2cccs2)cs1)c1cccc(S(=O)(=O)N2CCCCCC2)c1 | – | inconclusive: 11.2 µM [inhibitor, partial curve, poor fit] |
| O=C(Nc1ccc(-c2cn3ccccc3n2)cc1)c1ccco1 | – | inconclusive: 6.31 µM [inhibitor, partial curve] |
| COc1ccccc1C1(CCNC(C)c2cccs2)CCOC(C(C)C)C1 (configuration not stated) | – | inconclusive: 10 µM [inhibitor, partial curve, poor fit] |
| Cc1c(Cl)cccc1NC(=O)CCCCCN1C(=O)CCC1=O | inactive: 6.53% | – |
| O=C(N/N=C\c1ccoc1)c1ccco1 | – | inconclusive: 5.62 µM [activator, single point] |
| CCC(c1nnnn1CCOC)N(Cc1ccc(C)cc1)Cc1cc2cc(OC)ccc2[nH]c1=O (configuration not stated) | – | inactive and inconclusive: 28.2 µM [inhibitor, single point] |
| COc1ccc(C(=O)/C=C/Nc2ccc([N+](=O)[O-])cc2C)c(OC)c1 | inactive: -6.26% | – |
| CC(=NCCCO)c1c(O)[nH]c(=O)[nH]c1=O | – | inconclusive: 3.16 µM [activator, single point] |
| CC(C)(C)C(=O)C1=C(O)C(=O)N(Cc2ccccc2)C1c1ccccc1F (configuration not stated) | – | inconclusive: 0.631 µM [inhibitor, full curve] |
| CC1CC/C(=N/Nc2ccccc2)C(=O)N1 (configuration not stated) | – | inconclusive: 6.31 µM [activator, partial curve] |

| SMILES | activity change, negative = inhibition | Potency |
| --- | --- | --- |
| COc1ccc(C2=NOC(C(=O)NCc3ccc(F)cc3)C2)cc1OC (configuration not stated) | – | inconclusive: 0.146 µM [inhibitor, full curve] |
| CCN1c2ccccc2NC2N=C(OC)C(c3ccccc3)C21 (configuration not stated) | – | active: 23.1 µM |
| COc1cc(Nc2nc(-c3ccccc3)c3cc(C)ccc3n2)cc(OC)c1OC | – | inconclusive: 11.2 µM [inhibitor, partial curve, poor fit] |
| Cc1ccccc1OCC1Cn2c(nc3c2c(=O)n(C)c(=O)n3C)O1 (configuration not stated) | – | inconclusive: 25.1 µM [inhibitor, single point] |
| Cc1cc(C(F)(F)F)nn1Cc1n[nH]c(=S)n1-c1ccc(Cl)cc1 | – | inconclusive: 2.24 µM [activator, partial curve, poor fit] |
| Cc1cc(N(CCCl)CCCl)ccc1C=NNC(=O)Cc1cc(=O)oc2cc(O)ccc12 | – | inconclusive: 11.2 µM [inhibitor, partial curve] |
| O=C(Cn1nnc(-c2ccccc2Cl)n1)Nc1cccc(S(=O)(=O)N2CCCC2)c1 | – | inconclusive: 11.2 µM [inhibitor, partial curve, poor fit] |
| CC(=O)c1cccc(NC(=O)COC(=O)CC2CC3CCC2C3)c1 (configuration not stated) | inactive: 8.5% | – |
| CCOc1ccccc1N(CC(=O)Nc1cccnc1)S(=O)(=O)c1ccc(C)cc1 | inactive: 4.69% [at 46.1 µM] | – |
| CC(=O)c1ccc(NS(=O)(=O)c2c(C)cc(C)cc2C)cc1 | – | inconclusive: 35.5 µM [inhibitor, single point] |
| CCOc1ccc(-c2csc3ncnc(Nc4cccc(O)c4)c23)cc1 | – | inconclusive: 6.31 µM [inhibitor, full curve] |
| CC(Oc1ccccc1)c1nnc(SCC(=O)NC2CC2)n1C (configuration not stated) | – | inconclusive: 35.5 µM [activator, single point] |
| Fc1ccc(/C=N/Nc2ccccn2)cc1 | – | inconclusive: 0.562 µM [activator, full curve, poor fit] |
| CCn1c2ccccc2c2cc(NC(=O)COc3cc(C)c(Cl)c(C)c3)ccc21 | – | inconclusive: 0.562 µM [inhibitor, full curve, poor fit] |
| COc1ccccc1C(=O)NNC(=S)Nc1ccccc1 | – | inconclusive: 35.5 µM [activator, single point] |
| O=C(NNc1nc2ccccc2nc1C(F)(F)F)c1ccccc1 | – | inconclusive: 1.41 µM [activator, partial curve, poor fit] |
| Cc1cccc(NC(=O)CCNC(=O)c2ccc(Br)cc2)c1 | – | inconclusive: 8.91 µM [activator, partial curve, poor fit] |
| CCN1CCCC1CNC(=O)c1ccccc1Cl (configuration not stated) | – | inconclusive: 0.1 µM [activator, full curve, poor fit] |
| CN1CCN(c2ccc(NS(=O)(=O)c3ccc(Cl)cc3)cn2)CC1 | – | inconclusive: 8.91 µM [inhibitor, partial curve, poor fit] |
| O=C(O)COc1ccc2oc3ccccc3c2c1 | – | inconclusive: 7.08 µM [inhibitor, partial curve, poor fit] |
| CC(C)(C)OC(=O)N1CCC[C@H]1C(=O)N/N=C/c1cccc2cccnc12 | – | inconclusive: 0.891 µM [inhibitor, single point] |
